Results are given in words; binding and its absence hold for the method and conditions named. Binding seen in cells or lysates may run through a third protein. Some results given as binding are weak or reduced against the parent protein; the word gives no strength. Sequences can lack the tags named with a protein.
Columns and labels:
[1] = target: T1, GFP–CT3.3 (Gin4 residues 551–650, N-terminal GFP tag) (Candida albicans) (UniProt Q59W62); assay: co-IP; GFP-tagged Gin4 proteins precipitated with anti-GFP beads from lysates of log-phase C. albicans yeast cells coexpressing Cdc14–Myc; western blot for Myc and GFP; GIN4-ON (Fig. 6B), GIN4-ON and GIN4-OFF (Fig. S4B, S4C)
T1 sequence: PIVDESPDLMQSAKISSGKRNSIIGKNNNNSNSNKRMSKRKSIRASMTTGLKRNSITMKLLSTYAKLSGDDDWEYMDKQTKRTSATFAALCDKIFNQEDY

[2] = target: T2, GFP–Gin4^CT1Δ (Gin4 lacking CT1, residues 1051–1349; N-terminal GFP tag) (Candida albicans) (UniProt Q59W62); assay: as above
T2 sequence: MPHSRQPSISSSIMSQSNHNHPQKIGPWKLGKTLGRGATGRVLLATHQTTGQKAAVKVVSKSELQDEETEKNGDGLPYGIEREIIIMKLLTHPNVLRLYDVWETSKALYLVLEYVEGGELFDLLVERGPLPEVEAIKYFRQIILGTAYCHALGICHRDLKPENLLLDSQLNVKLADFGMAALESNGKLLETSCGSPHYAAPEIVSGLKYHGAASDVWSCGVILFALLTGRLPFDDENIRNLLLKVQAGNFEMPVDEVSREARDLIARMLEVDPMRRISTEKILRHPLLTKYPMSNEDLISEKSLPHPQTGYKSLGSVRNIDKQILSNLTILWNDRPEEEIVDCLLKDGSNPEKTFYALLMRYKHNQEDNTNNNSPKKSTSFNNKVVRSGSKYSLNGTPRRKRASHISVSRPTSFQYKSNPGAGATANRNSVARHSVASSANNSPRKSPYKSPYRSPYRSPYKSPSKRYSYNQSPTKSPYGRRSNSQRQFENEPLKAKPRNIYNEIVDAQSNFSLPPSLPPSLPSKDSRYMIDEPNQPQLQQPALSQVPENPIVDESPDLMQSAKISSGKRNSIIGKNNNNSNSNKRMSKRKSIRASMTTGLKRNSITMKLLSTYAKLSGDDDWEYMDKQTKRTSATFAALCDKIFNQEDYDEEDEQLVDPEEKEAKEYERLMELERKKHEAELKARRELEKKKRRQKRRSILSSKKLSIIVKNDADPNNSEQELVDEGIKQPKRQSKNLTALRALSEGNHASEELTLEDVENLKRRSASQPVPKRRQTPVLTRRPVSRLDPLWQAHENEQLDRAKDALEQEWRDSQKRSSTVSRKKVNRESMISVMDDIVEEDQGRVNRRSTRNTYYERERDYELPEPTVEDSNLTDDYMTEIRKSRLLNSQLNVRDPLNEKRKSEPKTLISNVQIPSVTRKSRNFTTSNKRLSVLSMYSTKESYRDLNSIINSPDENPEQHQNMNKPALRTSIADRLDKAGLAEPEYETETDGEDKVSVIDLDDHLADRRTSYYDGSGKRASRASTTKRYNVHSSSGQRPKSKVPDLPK

[3] = target: T3, GFP–CT3 (Gin4 residues 451–750, N-terminal GFP tag) (Candida albicans) (UniProt Q59W62); assay: as above
T3 sequence: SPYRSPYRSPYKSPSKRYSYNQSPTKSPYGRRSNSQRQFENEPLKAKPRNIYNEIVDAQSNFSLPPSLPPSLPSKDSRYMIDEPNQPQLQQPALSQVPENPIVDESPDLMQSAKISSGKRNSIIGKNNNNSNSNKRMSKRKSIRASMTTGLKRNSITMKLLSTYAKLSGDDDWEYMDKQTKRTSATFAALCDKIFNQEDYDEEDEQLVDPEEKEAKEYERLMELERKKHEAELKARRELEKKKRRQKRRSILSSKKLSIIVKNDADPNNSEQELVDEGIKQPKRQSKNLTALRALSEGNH

[4] = target: T4, GFP–Gin4 (Candida albicans Gin4, N-terminal GFP tag) (Candida albicans) (UniProt Q59W62); assay: as above
T4 sequence: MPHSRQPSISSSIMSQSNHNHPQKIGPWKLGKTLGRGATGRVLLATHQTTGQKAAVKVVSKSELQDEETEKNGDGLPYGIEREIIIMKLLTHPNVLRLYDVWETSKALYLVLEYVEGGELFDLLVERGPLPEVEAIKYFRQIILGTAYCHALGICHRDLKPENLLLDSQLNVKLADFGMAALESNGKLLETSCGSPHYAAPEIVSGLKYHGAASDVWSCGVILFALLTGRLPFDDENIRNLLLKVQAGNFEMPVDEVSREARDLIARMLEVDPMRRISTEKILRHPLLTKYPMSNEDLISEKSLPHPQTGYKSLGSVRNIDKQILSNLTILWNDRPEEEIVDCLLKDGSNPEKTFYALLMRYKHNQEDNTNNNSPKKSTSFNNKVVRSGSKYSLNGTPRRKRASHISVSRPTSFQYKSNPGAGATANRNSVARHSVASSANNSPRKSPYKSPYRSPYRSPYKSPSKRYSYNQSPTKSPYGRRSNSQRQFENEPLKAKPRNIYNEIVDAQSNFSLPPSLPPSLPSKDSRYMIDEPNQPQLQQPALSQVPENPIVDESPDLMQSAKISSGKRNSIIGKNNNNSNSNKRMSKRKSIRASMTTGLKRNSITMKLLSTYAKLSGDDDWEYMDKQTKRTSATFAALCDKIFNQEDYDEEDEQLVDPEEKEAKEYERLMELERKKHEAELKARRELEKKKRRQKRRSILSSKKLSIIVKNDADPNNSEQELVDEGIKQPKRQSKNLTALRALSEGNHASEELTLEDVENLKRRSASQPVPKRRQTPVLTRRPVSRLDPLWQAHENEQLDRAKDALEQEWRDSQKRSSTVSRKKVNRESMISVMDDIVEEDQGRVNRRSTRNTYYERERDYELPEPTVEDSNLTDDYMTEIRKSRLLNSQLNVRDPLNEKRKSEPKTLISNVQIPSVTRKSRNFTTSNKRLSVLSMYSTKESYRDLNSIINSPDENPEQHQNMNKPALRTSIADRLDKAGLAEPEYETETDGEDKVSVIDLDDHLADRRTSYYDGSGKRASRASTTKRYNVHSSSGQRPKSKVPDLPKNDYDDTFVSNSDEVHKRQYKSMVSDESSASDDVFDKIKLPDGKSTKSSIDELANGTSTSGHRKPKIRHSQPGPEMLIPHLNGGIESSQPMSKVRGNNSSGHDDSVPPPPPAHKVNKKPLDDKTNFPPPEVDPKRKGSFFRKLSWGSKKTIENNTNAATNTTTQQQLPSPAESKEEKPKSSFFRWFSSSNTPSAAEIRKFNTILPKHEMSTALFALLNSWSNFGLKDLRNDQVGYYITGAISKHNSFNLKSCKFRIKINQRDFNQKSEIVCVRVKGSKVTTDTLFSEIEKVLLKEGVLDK

[5] = target: T5, Gin4–GFP (Gin4 with GFP, expressed from its endogenous promoter) (Candida albicans) (UniProt Q59W62); assay: co-IP; Gin4–GFP immunoprecipitated (GFP) from WT and cdc14Δ/Δ C. albicans cells that hold untagged and GFP-tagged Gin4, at timed intervals after release from stationary phase; western blot for PScdk and GFP
T5 sequence (chain, CDK-phosphorylated serine residues (detected with the PScdk antibody)): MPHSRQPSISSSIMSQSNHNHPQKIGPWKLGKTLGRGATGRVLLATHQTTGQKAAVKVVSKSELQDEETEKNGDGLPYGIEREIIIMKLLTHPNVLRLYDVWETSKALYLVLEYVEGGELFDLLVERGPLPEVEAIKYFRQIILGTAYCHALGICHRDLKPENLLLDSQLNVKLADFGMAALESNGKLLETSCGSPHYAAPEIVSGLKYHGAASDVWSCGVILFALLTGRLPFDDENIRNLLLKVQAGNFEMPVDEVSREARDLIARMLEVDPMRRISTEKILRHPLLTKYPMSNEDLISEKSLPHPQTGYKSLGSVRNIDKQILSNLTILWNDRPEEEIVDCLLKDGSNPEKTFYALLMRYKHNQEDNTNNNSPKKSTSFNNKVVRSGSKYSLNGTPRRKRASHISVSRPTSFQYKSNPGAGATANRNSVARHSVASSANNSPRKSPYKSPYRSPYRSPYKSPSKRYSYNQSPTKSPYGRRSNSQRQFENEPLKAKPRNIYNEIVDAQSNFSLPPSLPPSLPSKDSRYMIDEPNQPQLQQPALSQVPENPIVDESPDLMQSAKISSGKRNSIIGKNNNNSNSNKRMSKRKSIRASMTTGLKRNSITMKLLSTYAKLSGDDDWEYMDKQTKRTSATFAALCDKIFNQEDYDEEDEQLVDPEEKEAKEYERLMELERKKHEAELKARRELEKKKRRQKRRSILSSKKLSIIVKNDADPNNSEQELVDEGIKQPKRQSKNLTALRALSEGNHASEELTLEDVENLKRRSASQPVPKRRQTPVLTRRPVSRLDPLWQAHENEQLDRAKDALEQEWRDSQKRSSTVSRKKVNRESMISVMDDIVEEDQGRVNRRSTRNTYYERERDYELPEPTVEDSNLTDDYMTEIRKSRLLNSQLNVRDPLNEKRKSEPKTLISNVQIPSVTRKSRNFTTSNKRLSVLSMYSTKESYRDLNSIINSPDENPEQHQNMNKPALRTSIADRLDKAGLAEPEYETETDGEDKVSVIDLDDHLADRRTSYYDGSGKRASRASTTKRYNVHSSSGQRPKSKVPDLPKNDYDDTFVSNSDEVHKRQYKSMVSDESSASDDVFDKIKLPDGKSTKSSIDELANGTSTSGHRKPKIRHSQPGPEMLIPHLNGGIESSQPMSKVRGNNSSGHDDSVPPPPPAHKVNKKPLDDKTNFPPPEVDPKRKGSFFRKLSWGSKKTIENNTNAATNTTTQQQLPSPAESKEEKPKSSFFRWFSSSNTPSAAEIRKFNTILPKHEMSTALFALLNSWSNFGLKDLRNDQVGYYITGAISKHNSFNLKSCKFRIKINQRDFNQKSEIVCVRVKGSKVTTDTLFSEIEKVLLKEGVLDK

B1: Cdc14–Myc (phosphatase Cdc14, C-terminal Myc tag) (enzyme, UniProt Q59NH8 1-542)
chain: MHSSSVHVPLIEFLKNRIYLGAYDHHKRDTEDLAYFTVEDALPYNAFYMDFGPLNIGHLYRFAVLLHKKLNEDSTQGKGLVIYSSTSPKERANLACLLCCYMILLQNWAPHQVLQPIAQITPPLQAFRDAGYSSADYEITIQDVVYAMWRAKERGMIDLAKFDLDEYEQYERVDQGDFNVISKDFIAFASPQQSKRGGLNEPFQKVLEYFVENNVQLVVRLNSHLYDAKEFTKRNIKHIDMIFDDGTCPTLEYVQKFIGAAECIINKGGKIAVHCKAGLGRTGCLIGAHLIYTHGFTANECIAYMRMIRPGMVVGPQQHWLYLHHDDFRSWRHTMIVDNRPDPLIGNLFPLCSYEDYKQRLKEAKRKERLQLQQQLTSPLADSSVINTPIRRRKVSGALASKIQTVVPIESPGQPRKYFEDSEDIDEVEMVNNSDDENTMQDIIQSSPARYDSVTPKTKDNSDWRVLRSISTNNVSSQQSIHIIKTTTTKTVNETLSSPPGTSPTNVLRVSKARSKNRIASGNSQTSRAHSGGVRKLSGKKH
With B1 the binding [1] was “binds”, the binding [2] was “binds” and the binding [3] was “binds”. For the same binder, the binding [4] was “binds”.

B2: untagged Gin4 (protein, UniProt Q59W62 1-1349)
chain: MPHSRQPSISSSIMSQSNHNHPQKIGPWKLGKTLGRGATGRVLLATHQTTGQKAAVKVVSKSELQDEETEKNGDGLPYGIEREIIIMKLLTHPNVLRLYDVWETSKALYLVLEYVEGGELFDLLVERGPLPEVEAIKYFRQIILGTAYCHALGICHRDLKPENLLLDSQLNVKLADFGMAALESNGKLLETSCGSPHYAAPEIVSGLKYHGAASDVWSCGVILFALLTGRLPFDDENIRNLLLKVQAGNFEMPVDEVSREARDLIARMLEVDPMRRISTEKILRHPLLTKYPMSNEDLISEKSLPHPQTGYKSLGSVRNIDKQILSNLTILWNDRPEEEIVDCLLKDGSNPEKTFYALLMRYKHNQEDNTNNNSPKKSTSFNNKVVRSGSKYSLNGTPRRKRASHISVSRPTSFQYKSNPGAGATANRNSVARHSVASSANNSPRKSPYKSPYRSPYRSPYKSPSKRYSYNQSPTKSPYGRRSNSQRQFENEPLKAKPRNIYNEIVDAQSNFSLPPSLPPSLPSKDSRYMIDEPNQPQLQQPALSQVPENPIVDESPDLMQSAKISSGKRNSIIGKNNNNSNSNKRMSKRKSIRASMTTGLKRNSITMKLLSTYAKLSGDDDWEYMDKQTKRTSATFAALCDKIFNQEDYDEEDEQLVDPEEKEAKEYERLMELERKKHEAELKARRELEKKKRRQKRRSILSSKKLSIIVKNDADPNNSEQELVDEGIKQPKRQSKNLTALRALSEGNHASEELTLEDVENLKRRSASQPVPKRRQTPVLTRRPVSRLDPLWQAHENEQLDRAKDALEQEWRDSQKRSSTVSRKKVNRESMISVMDDIVEEDQGRVNRRSTRNTYYERERDYELPEPTVEDSNLTDDYMTEIRKSRLLNSQLNVRDPLNEKRKSEPKTLISNVQIPSVTRKSRNFTTSNKRLSVLSMYSTKESYRDLNSIINSPDENPEQHQNMNKPALRTSIADRLDKAGLAEPEYETETDGEDKVSVIDLDDHLADRRTSYYDGSGKRASRASTTKRYNVHSSSGQRPKSKVPDLPKNDYDDTFVSNSDEVHKRQYKSMVSDESSASDDVFDKIKLPDGKSTKSSIDELANGTSTSGHRKPKIRHSQPGPEMLIPHLNGGIESSQPMSKVRGNNSSGHDDSVPPPPPAHKVNKKPLDDKTNFPPPEVDPKRKGSFFRKLSWGSKKTIENNTNAATNTTTQQQLPSPAESKEEKPKSSFFRWFSSSNTPSAAEIRKFNTILPKHEMSTALFALLNSWSNFGLKDLRNDQVGYYITGAISKHNSFNLKSCKFRIKINQRDFNQKSEIVCVRVKGSKVTTDTLFSEIEKVLLKEGVLDK
modifications: CDK-phosphorylated serine residues (detected with the PScdk antibody)
With B2 the binding [5] was “binds”.
